The full ranking holds about 1,600 compounds; the median of “Hit score” is about 0.13, and the highest 2% start at about 0.46. Some of the results follow. Where a SMILES comes first, the peptide text is derived from it. Bridges are numbered along the chain shown (N, C = ends). [ ]: non-standard residue; d: D form. hArg = N=C(N)NCCCC[C@H](N)C(=O)O; Mpa = O=C(O)CCS

The assay relates to SARS-CoV-2. The assay can be described thus: Antiviral activity against SARS-CoV-2 (USA-WA1/2020 strain) measured by imaging in HRCE cells at MOI 0.4 after 96 hrs (reported as hit score from 0-1 for on-disease vs off-disease activity: scores >0.6 considered hits). It is filed as functional, Homo sapiens.
The molecule `C1=N/C2=N/c3ccc(OCCN4CCCC4)c(c3)COC/C=C/COCc3cccc(c3)C(=C1)N2` [PACRITINIB] displayed a Hit score of 0.4102.

`CCCCCC/C=C/C=C\CCCCCCCC(=O)O`: the Hit score is given as 0.1392.

In turn, `COc1ccc2cccc(CCNC(C)=O)c2c1` [AGOMELATINE] returned a Hit score of 0.1484.

Molecule `CC(C)NCC(O)c1ccc(NS(C)(=O)=O)cc1` (stereo not given) [SOTALOL] yielded a Hit score of 0.3853. The result for `CCNC1(c2cccs2)CCCCC1=O` (stereo not given) [TILETAMINE] reads 0.2012; that for `CCCCCCCCCCCCCCCC[N+](C)(C)CCN(Cc1ccc(OC)cc1)c1ncccn1` [THONZONIUM], 0.1484; that for `COc1cc(OC)cc(N(CCNC(C)C)c2ccc3ncc(-c4cnn(C)c4)nc3c2)c1` [ERDAFITINIB], 0.03006.

Molecule `Cc1nc(C)c(Cl)c(O)c1Cl` [CLOPIDOL] registered a Hit score of 0.1314.

Consider `CCN(CC)CCCC(C)Nc1c2ccc(Cl)cc2nc2ccc(OC)cc12` (stereo not given) [QUINACRINE], for which the Hit score is -0.004903. The result for `CN(C)CCCN1c2ccccc2CCc2ccc(Cl)cc21` [CLOMIPRAMINE] reads 0.1291; that for `Nc1ccc(O)c(C(=O)O)c1` [MESALAMINE], 0.1964.

In the case of `Clc1ccccc1CN1CCc2sccc2C1` [TICLOPIDINE], the Hit score is recorded as 0.194.

In turn, `CCOC(=O)OC(C)OC(=O)[C@@H]1N2C(=O)[C@@H](NC(=O)[C@H](N)c3ccccc3)[C@H]2SC1(C)C` (stereo not given in full) [BACAMPICILLIN] gave a Hit score of 0.01773. In turn, `CCCCCCCC(=O)N[C@H](CN1CCCC1)[C@H](O)c1ccc2c(c1)OCCO2` registered a Hit score of -0.0874. The result for `O=C(NN1C(=O)[C@@H]2[C@@H]3C=C[C@@H]([C@H]4C[C@@H]34)[C@@H]2C1=O)c1ccc(C(F)(F)F)cc1` [TECOVIRIMAT] reads 0.03467. Under `CC(C)NC[C@H](O)COc1ccc(CCOCC2CC2)cc1` [LEVOBETAXOLOL] stands 0.4949; under `O=C1CC[C@@H](C(=O)O)N1` [PIDOLIC ACID], 0.1555; under `CCC(C)(C)C(=O)O[C@H]1C[C@@H](C)C=C2C=C[C@H](C)[C@H](CC[C@@H]3C[C@@H](O)CC(=O)O3)[C@H]21` [SIMVASTATIN], 0.1206.

For the molecule `COc1ccc(C(=O)N2CCN(c3ccc4c(c3)CCC(=O)N4)CC2)cc1OC` [VESNARINONE], the Hit score is given as 0.09463. The result for `C=CCc1cc(OC)c(O)c(C(=O)NCCO)c1` [ALIBENDOL] reads 0.1813; that for `C[C@H]1O[C@@H](O[C@H]2[C@@H](O)C[C@H](O[C@H]3[C@@H](O)C[C@H](O[C@H]4CC[C@@]5(C)[C@H](CC[C@@H]6[C@@H]5CC[C@]5(C)[C@@H](C7=CC(=O)OC7)CC[C@]65O)C4)O[C@@H]3C)O[C@@H]2C)C[C@H](O)[C@@H]1O` [DIGITOXIN], -0.2851; that for `CC(C)(C)C(=O)OCOC(=O)[C@@H]1N2C(=O)C[C@H]2S(=O)(=O)C1(C)C` [SULBACTAM PIVOXIL], 0.1252. Under `CC[C@]12CCCN3CCc4c(n(c5ccccc45)C(=O)C1)[C@@H]32` [VINBURNINE] stands 0.1621.

As for `OC[C@@H](O)[C@@H](O)CO` [E968], the Hit score is given as 0.1573. Under `O=C1C(CC[S+]([O-])c2ccccc2)C(=O)N(c2ccccc2)N1c1ccccc1` (stereo not given) [SULFINPYRAZONE] stands -0.09933; under `O=C(Cc1ccc(-c2ccccc2)cc1)Nc1ccccn1` [DIFENPIRAMIDE], 0.2732. Under `CCCCC(=O)OCC(=O)[C@]1(O)Cc2c(O)c3c(c(O)c2[C@@H](O[C@H]2C[C@H](NC(=O)C(F)(F)F)[C@H](O)[C@H](C)O2)C1)C(=O)c1c(OC)cccc1C3=O` [VALRUBICIN] stands 0.1204; under `NS(=O)(=O)c1cc2c(cc1Cl)N=C(CSCc1ccccc1)NS2(=O)=O` [BENZTHIAZIDE], 0.1308; under `COC(=O)OCOc1c2n(ccc1=O)N([C@@H]1c3ccccc3SCc3c1ccc(F)c3F)[C@@H]1COCCN1C2=O` [BALOXAVIR MARBOXIL], 5.7e-05.

Regarding `CCCCS(=O)(=O)N[C@@H](Cc1ccc(OCCCCC2CCNCC2)cc1)C(=O)O.Cl.O` [TIROFIBAN HYDROCHLORIDE], the Hit score stood at 0.1975. Under `C[C@@H]1CC(=O)NN=C1c1ccc(NN=C(C#N)C#N)cc1` [LEVOSIMENDAN] stands 0.1264; under `O=C(Nc1cc(Cl)cc(Cl)c1O)c1c(O)c(Cl)cc(Cl)c1Cl` [OXYCLOZANIDE], 0.1882. Under `O=[N+]([O-])c1ccc([As](=O)(O)O)cc1` stands 0.01938. The result for `O=C(O)Cc1ccccc1Nc1c(Cl)cccc1Cl` [DICLOFENAC] reads 0.07182. Take `C[C@@H](c1ncncc1F)[C@](O)(Cn1cncn1)c1ccc(F)cc1F` [VORICONAZOLE]: the Hit score is reported as 0.166. `CC(C)Cc1ccc([C@H](C)C(=O)O)cc1` [DEXIBUPROFEN] came in with a Hit score of 0.05761.

Turning to `Cc1ccn(-c2cc(Cl)ccc2[C@@H](Oc2cc(-c3ccc(C[C@H](N)C(=O)O)cc3)nc(N)n2)C(F)(F)F)n1` [TELOTRISTAT], the Hit score was -0.05214. Under `Cc1cncc(CN2CCC(=C3c4ccc(Cl)cc4CCc4cccnc43)CC2)c1` [RUPATADINE] stands 0.08101; under `CCOc1cc(NC(C)=O)ccc1C(=O)OC` [ETHOPABATE], 0.0447; under `O=c1[nH]cc(F)c(=O)[nH]1` [FLUOROURACIL], 0.2369. Molecule `CC(=O)Oc1cc(C(F)(F)F)ccc1C(=O)O` [TRIFLUSAL] registered a Hit score of 0.08111. Turning to `O=C(Nc1cccc2c(=O)cc(-c3nnn[nH]3)oc12)c1ccc(OCCCCc2ccccc2)cc1`, the Hit score is given as 0.04471. The result for `Cc1ccc(C(=O)Nc2ccc(CN3CCN(C)CC3)c(C(F)(F)F)c2)cc1C#Cc1cnc2cccnn12` [PONATINIB] reads 0.5086. Under `CC(C)(C)NC[C@H](O)COc1nsnc1N1CCOCC1` [TIMOLOL] stands 0.174. The result for `C#C[C@]1(O)CC[C@H]2[C@@H]3CCC4=CC(=O)CC[C@@H]4[C@H]3C(=C)C[C@@]21CC` [ETONOGESTREL] reads 0.1134; that for `NCCCC[C@H](N[C@@H](CCc1ccccc1)C(=O)O)C(=O)N1CCC[C@H]1C(=O)O` [LISINOPRIL ANHYDROUS], 0.2648. `O=C(N/N=C/c1ccc([N+](=O)[O-])o1)c1cc([N+](=O)[O-])cc([N+](=O)[O-])c1O` [NIFURSOL] returned a Hit score of -0.1241. `COC1=C(OC)C(=O)C(CCCCCCCCCCO)=C(C)C1=O` [IDEBENONE] displayed a Hit score of 0.08349. The result for `CCOC(=O)[C@H](CCc1ccccc1)N[C@H]1CCc2ccccc2N(CC(=O)O)C1=O` [BENAZEPRIL] reads 0.112; that for `Brc1ccc(NC2C3CC4CC(C3)CC2C4)cc1` (stereo not given), 0.3495; that for `COc1cccc(N2CCN(C3=Nc4c(F)cccc4[C@H](CC(=O)O)N3c3cc(C(F)(F)F)ccc3OC)CC2)c1` [LETERMOVIR], 0.3651. The result for `Cc1nc2ccccc2n1Cc1ccc(Cl)cc1` [CHLORMIDAZOLE] reads -0.04269.

`CCCN1CC(NS(=O)(=O)N(CC)CC)CC2Cc3c(O)cccc3CC21` (stereo not given) [QUINAGOLIDE] showed a Hit score of 0.09123. `CCCN[C@H]1CCc2nc(N)sc2C1` [PRAMIPEXOLE]: the Hit score is reported as 0.02328. The result for `COc1ccc(C(=O)CC2(O)C(=O)Nc3c(Cl)ccc(Cl)c32)cc1` (stereo not given) reads 0.2466; that for `CCOC(=O)c1ccc(OC(=O)CCCCCNC(=N)N)cc1` [GABEXATE], 0.2661; that for `CCCCC[C@H](O)/C=C/[C@@H]1[C@@H](C/C=C\CCCC(=O)O)[C@@H](O)C[C@H]1O` [DINOPROST], 0.3611. Under `CC(=O)c1ccc(S(=O)(=O)NC(=O)NC2CCCCC2)cc1` [ACETOHEXAMIDE] stands 0.1296; under `COc1cc(/C=C/C(=O)N2CCN(CC(=O)N3CCCC3)CC2)cc(OC)c1OC` [CINEPAZIDE], 0.05308; under `CC(=O)N[C@H]1[C@H]([C@H](O)[C@H](O)CO)OC(C(=O)O)=C[C@@H]1NC(=N)N` [ZANAMIVIR], 0.0708. The result for `COc1ccc(CN(CCN(C)C)c2ccccn2)cc1` [PYRILAMINE] reads 0.07513. `Cn1c(=O)cc(N2CCC[C@@H](N)C2)n(Cc2cc(F)ccc2C#N)c1=O` [TRELAGLIPTIN] showed a Hit score of 0.1171. The result for `C[C@]12C=CC(=O)C=C1CC[C@@H]1[C@@H]2[C@@H](O)C[C@@]2(C)[C@H]1CC[C@]2(O)C(=O)O` [LOTEPREDNOL] reads 0.1972. Turning to `COc1cc2c(Oc3ccc4[nH]c(C)cc4c3F)ccnc2cc1OCC1(N)CC1` [CATEQUENTINIB], the Hit score was found to be 0.165. The result for `CCC(=O)O[C@]1(C(=O)CCl)[C@@H](C)C[C@H]2[C@@H]3C[C@H](F)C4=CC(=O)C=C[C@]4(C)[C@@]3(F)[C@@H](O)C[C@@]21C` [HALOBETASOL PROPIONATE] reads 0.1488; that for `COc1ccc(Cc2nccc3cc(OC)c(OC)cc23)cc1OC` [PAPAVERINE], 0.03666; that for `N=C(N)NCCCC[C@@H]1NC(=O)CCSSC[C@@H](C(N)=O)NC(=O)[C@@H]2CCCN2C(=O)[C@H](Cc2c[nH]c3ccccc23)NC(=O)[C@H](CC(=O)O)NC(=O)CNC1=O` [EPTIFIBATIDE] ([Mpa][hArg]GDWPC-NH2; disulfide 1-7), -0.04529. The result for `c1ccc(C2CN3CCSC3=N2)cc1` (stereo not given) [TETRAMISOLE] reads 0.1521. Molecule `COC(=O)CC1CC(c2ccc(O)cc2)=NO1` (stereo not given) registered a Hit score of 0.2758.

Consider `CC(=O)OCC(COC(C)=O)OC(C)=O` [TRIACETIN], for which the Hit score is listed as 0.08279.

The values are drawn from ChEMBL document CHEMBL4303122, “Identification of potential treatments for COVID-19 through artificial intelligence-enabled phenomic analysis of human cells infected with SARS-CoV-2” (2020).
